Measurements: the supplement of paper PMC10849652
The list shows a part of the results.

Amino acid sequences for entries named in this document (tags omitted). A change or cut given only in a name is not applied to a line headed by its entry.
UniProt Q9Y4C1: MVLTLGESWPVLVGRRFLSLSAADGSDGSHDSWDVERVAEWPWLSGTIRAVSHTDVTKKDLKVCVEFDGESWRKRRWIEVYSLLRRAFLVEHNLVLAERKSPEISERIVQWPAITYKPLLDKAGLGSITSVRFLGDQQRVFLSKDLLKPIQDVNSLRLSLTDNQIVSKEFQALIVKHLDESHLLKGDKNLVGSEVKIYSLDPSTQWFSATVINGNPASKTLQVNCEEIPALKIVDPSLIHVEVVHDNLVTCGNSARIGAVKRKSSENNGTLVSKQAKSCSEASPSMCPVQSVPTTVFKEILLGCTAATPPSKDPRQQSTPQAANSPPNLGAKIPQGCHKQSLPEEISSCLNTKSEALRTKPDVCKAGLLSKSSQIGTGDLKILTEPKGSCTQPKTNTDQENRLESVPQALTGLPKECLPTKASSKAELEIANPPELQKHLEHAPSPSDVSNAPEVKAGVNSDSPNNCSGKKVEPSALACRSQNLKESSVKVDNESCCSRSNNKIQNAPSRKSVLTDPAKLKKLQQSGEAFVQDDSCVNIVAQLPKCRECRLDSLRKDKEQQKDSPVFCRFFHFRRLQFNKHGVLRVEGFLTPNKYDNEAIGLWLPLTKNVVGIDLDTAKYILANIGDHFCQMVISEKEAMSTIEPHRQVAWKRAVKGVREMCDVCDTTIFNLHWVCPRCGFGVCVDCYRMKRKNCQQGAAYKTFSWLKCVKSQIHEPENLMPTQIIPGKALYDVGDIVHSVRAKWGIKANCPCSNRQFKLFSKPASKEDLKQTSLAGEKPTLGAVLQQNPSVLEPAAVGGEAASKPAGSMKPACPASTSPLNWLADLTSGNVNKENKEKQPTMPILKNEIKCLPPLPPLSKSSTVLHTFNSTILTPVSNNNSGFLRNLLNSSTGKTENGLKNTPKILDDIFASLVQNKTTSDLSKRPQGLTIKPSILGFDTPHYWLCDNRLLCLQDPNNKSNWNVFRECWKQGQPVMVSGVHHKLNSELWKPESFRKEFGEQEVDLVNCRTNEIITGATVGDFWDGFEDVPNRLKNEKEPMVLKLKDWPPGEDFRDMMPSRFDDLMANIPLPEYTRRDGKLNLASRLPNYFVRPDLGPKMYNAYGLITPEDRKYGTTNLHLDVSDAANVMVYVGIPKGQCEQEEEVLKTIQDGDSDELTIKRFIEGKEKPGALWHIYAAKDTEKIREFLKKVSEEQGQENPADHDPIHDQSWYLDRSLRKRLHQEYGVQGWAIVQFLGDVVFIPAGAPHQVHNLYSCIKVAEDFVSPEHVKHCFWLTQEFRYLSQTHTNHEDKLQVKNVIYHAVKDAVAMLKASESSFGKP
UniProt Q9NQX7: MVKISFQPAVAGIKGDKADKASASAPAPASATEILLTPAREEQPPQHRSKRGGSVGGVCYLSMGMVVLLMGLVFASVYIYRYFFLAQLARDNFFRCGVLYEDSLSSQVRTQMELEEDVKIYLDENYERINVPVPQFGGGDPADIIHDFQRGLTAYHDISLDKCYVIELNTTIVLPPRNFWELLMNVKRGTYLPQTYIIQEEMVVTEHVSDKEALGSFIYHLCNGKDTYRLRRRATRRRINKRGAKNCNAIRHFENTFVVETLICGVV
UniProt Q9H8E8: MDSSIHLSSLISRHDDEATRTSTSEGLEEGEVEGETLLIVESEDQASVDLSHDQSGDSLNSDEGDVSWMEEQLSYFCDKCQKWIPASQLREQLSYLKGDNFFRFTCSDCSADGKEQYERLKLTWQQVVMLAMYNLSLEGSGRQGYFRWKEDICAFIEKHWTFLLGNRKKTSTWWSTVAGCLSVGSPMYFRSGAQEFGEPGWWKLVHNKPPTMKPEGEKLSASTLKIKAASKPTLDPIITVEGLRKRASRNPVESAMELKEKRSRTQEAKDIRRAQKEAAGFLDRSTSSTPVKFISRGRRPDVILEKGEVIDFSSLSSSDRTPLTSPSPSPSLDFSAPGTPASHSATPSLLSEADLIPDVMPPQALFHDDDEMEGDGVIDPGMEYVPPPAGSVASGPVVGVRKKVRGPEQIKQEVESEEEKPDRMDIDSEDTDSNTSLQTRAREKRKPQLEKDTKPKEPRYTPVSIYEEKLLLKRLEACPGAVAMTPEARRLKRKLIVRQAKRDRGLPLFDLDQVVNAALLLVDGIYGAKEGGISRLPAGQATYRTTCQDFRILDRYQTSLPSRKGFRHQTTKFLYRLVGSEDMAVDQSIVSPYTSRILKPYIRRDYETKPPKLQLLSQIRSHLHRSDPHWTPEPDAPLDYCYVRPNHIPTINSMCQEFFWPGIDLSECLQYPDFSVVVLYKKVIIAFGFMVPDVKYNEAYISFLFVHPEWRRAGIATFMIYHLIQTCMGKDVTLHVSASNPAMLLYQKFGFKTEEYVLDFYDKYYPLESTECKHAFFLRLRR
UniProt Q8NAX2: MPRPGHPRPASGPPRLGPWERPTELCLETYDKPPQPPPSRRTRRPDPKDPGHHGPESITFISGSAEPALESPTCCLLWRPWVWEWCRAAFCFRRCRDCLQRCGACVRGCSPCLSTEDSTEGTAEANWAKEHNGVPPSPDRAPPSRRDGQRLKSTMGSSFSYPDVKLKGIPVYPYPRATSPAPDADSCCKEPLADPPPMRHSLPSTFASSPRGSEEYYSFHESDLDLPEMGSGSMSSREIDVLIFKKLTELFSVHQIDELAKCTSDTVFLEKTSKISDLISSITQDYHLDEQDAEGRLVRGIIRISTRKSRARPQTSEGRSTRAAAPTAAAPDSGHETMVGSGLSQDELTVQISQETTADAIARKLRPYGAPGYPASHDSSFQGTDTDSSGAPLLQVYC
UniProt Q9H1K1: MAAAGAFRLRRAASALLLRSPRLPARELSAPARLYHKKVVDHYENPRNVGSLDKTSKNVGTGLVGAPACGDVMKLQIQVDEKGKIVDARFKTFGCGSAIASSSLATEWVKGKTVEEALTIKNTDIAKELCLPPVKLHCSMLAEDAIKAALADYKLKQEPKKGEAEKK
UniProt Q9Y2K7: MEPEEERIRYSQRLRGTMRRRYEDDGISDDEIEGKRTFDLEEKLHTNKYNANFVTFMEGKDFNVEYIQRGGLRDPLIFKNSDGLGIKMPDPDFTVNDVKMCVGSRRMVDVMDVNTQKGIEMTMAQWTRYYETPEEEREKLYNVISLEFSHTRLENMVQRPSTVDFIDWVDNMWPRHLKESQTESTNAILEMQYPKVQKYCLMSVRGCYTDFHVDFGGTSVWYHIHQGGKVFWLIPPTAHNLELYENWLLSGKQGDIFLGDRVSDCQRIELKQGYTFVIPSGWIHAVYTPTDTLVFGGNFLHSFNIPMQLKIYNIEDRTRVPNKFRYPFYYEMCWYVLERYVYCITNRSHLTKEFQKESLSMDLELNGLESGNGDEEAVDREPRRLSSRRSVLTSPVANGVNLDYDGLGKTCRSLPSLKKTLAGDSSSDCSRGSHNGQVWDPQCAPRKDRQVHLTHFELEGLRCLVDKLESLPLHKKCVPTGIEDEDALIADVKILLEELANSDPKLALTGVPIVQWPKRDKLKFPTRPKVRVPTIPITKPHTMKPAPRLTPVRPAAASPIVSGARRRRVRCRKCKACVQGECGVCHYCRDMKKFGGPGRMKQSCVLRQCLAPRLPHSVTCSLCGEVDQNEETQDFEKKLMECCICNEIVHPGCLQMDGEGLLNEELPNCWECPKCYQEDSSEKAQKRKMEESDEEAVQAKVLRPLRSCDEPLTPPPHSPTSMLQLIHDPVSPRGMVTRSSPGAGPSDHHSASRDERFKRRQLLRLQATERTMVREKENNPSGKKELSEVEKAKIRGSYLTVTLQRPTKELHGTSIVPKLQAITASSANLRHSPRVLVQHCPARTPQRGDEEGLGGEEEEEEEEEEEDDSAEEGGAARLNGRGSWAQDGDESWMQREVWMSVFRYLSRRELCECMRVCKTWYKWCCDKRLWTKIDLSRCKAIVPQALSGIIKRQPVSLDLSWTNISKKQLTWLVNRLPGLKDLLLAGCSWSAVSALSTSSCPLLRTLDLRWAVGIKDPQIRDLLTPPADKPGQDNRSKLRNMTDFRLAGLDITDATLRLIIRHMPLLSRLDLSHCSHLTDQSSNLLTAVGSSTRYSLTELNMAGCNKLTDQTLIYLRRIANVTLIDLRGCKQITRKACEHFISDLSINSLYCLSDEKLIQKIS
UniProt Q674X7: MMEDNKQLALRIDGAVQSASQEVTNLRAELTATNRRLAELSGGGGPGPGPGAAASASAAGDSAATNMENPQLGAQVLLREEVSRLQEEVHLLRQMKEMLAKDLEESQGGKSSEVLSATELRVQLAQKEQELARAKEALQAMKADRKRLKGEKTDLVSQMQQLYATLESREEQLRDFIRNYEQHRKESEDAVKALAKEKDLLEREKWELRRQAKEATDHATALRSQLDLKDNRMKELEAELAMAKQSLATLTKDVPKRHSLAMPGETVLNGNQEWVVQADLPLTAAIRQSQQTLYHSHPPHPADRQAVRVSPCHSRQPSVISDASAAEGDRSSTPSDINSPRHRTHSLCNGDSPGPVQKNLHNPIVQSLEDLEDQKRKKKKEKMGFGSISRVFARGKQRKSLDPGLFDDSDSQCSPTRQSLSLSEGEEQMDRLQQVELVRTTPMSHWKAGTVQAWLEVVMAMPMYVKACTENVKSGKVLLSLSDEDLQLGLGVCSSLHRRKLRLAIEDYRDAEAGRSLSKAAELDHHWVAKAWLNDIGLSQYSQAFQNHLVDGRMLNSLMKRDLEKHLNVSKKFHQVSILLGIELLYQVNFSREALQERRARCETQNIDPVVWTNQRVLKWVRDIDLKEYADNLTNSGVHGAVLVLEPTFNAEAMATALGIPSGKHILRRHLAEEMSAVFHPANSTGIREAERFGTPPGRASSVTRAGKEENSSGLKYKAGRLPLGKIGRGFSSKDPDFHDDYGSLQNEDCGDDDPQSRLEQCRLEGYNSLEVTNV
UniProt Q9UL03, whole entry, looked up: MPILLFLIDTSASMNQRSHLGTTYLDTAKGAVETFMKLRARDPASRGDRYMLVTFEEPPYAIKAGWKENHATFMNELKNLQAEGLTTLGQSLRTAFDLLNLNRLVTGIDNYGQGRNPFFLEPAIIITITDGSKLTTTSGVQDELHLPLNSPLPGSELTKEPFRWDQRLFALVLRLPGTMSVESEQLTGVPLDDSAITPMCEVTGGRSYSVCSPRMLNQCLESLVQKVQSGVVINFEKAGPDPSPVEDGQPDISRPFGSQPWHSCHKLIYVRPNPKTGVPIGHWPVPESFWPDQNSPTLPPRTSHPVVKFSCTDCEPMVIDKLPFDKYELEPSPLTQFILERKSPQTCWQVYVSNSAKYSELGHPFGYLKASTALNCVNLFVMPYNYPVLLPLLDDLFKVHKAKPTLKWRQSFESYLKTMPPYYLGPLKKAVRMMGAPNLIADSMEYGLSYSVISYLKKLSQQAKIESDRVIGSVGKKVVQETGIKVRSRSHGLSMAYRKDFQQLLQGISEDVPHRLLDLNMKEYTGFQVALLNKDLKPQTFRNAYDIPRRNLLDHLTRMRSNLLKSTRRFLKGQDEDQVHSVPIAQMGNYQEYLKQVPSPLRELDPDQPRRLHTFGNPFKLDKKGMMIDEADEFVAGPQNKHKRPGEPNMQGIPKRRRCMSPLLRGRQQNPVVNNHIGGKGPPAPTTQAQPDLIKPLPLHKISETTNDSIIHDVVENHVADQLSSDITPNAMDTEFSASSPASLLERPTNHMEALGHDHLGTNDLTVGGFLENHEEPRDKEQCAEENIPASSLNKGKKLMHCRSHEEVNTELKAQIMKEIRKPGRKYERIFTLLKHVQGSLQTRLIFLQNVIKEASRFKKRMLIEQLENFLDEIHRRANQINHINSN
UniProt O95279: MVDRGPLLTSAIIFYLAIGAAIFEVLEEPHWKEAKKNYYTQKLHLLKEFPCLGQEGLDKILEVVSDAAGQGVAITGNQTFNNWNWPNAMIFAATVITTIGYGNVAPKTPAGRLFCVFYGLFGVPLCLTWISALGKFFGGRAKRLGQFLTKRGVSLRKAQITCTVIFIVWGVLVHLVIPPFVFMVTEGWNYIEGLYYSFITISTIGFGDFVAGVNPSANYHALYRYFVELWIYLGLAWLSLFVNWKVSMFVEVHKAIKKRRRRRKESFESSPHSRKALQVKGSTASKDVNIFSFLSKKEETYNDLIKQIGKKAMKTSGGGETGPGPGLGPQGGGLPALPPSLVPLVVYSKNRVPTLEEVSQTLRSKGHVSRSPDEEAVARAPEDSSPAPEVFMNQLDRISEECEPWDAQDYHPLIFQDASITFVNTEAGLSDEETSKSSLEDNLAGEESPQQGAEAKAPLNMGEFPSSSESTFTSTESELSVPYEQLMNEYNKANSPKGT
UniProt Q8WZ19: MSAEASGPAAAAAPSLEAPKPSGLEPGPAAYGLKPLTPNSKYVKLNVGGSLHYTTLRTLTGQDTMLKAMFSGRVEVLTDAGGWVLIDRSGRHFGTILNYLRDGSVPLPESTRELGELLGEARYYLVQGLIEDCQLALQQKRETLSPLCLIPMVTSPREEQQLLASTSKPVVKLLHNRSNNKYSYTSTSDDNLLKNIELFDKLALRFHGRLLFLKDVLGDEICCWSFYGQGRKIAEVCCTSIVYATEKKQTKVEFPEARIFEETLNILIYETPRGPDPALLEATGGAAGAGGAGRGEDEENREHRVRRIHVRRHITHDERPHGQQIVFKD

Columns and labels:
Assay in all cases: log2 fold change, soluble protein after heating vs DMSO (PISA); higher = thermal stabilisation; K562 lysate, 10 uM; active = over 0.2 and 3.5 SD of the protein, either way, in both replicates (recomputed)
ibrutinib = compound: C=CC(=O)N1CCC[C@@H](n2nc(-c3ccc(Oc4ccccc4)cc3)c3c(N)ncnc32)C1 [ibrutinib]
How it was run: (§1)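 K562 pellets were dounce-homogenised in PBS pH 7.4 with 1 mM MgCl2, and the crude extract at 1 mg/mL protein was treated with 10 μM compound for 30 min. Aliquots were heated for 3 min across 48°C-58°C, pooled, and brought to 0.5% NP-40 at 4°C; soluble protein was the supernatant after 21,000xg for 90 min. Soluble protein was quantified by TMTpro 16plex LC-MS/MS with channel sums equalised, and reported as log2 fold change in thermal stability against DMSO controls, with values from duplicates.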

[1] = compound: CC(=O)c1cnc2ccc(-c3cc(Cl)c(O)c(Cl)c3)nc2c1N[C@H]1CC[C@H](CN(C)C)CC1
How it was run: as §1

ralimetinib = compound: CC(C)(C)Cn1c(N)nc2ccc(-c3[nH]c(C(C)(C)C)nc3-c3ccc(F)cc3)nc21 [ralimetinib]
How it was run: as §1

[2] = compound: CC(C)(O)CC(=O)NCCn1ccc2ncnc(Nc3ccc(Oc4cccc(C(F)(F)F)c4)c(Cl)c3)c21
How it was run: as §1

[3] = compound: CC(C)C1=C2N=C(C=C(N2N=C1)NCC3=CC=CC=C3)NCCCCCCN
How it was run: as §1

[4] = compound: CC1=C(C(CC(=O)N1)C2=CC=C(C=C2)C(F)(F)F)C(=O)NC3=C(C=C4C(=C3)C=NN4)F
How it was run: as §1

[5] = compound: CC1=C(C2=C(C=C1)C(=O)C3=CC=CC=C3N2CCCN)C
How it was run: as §1

[6] = compound: CC1=C(C=C(C=C1)NC(=O)C2=CC(=CC=C2)C(C)(C)C#N)NC3=CC4=C(C=C3)N=CN(C4=O)C
How it was run: as §1

[7] = compound: CC1=C(C=C(C=C1)NC(=O)C2=CC(=CC=C2)N(C)C)NC(=O)C3=CC=C(C=C3)O
How it was run: as §1

[8] = compound: CC1=CC=C(C=C1)SC2=C3C=C(SC3=CN=C2)C(=O)N
How it was run: as §1

Measured: log2 fold change

JMJD4 (UniProt Q9H9V9)
inactive: ibrutinib 0.011 | [1] 0.112 | ralimetinib -0.023 | [2] 0.016 | [3] 0.055 | [4] 0.028 | [5] 0.201 | [6] -0.026 | [7] -0.196 | [8] 0.021

KDM3A (UniProt Q9Y4C1)
inactive: ibrutinib 0.005 | ralimetinib -0.065 | [2] -0.069 | [3] 0.09 | [4] 0.043 | [5] -0.025 | [6] -0.007 | [7] 0.045

KCTD20 (UniProt Q7Z5Y7)
inactive: ibrutinib 0.109 | [1] 0.071 | ralimetinib 0.099 | [2] -0.009 | [3] 0.044 | [4] 0.062 | [5] 0.034 | [6] -0.001 | [7] 0.105 | [8] -0.051

ITM2C (UniProt Q9NQX7)
inactive: ibrutinib -0.201 | [1] -0.525 | ralimetinib -0.056 | [2] -0.069 | [3] -0.016 | [5] -0.083 | [6] -0.185 | [7] 0.113 | [8] -0.155

2 neighbouring entries from above, quoted:
KDM3A (UniProt Q9Y4C1)
inactive: ibrutinib 0.005 | ralimetinib -0.065 | [2] -0.069 | [3] 0.09 | [4] 0.043 | [5] -0.025 | [6] -0.007 | [7] 0.045

KCTD20 (UniProt Q7Z5Y7)
inactive: ibrutinib 0.109 | [1] 0.071 | ralimetinib 0.099 | [2] -0.009 | [3] 0.044 | [4] 0.062 | [5] 0.034 | [6] -0.001 | [7] 0.105 | [8] -0.051

(cont.)

JMY (UniProt Q8N9B5)
inactive: ibrutinib 0.117 | ralimetinib 0.176 | [2] -0.113 | [3] -0.145 | [5] -0.018 | [6] -0.087 | [7] 0.197

ISL2 (UniProt Q96A47)
inactive: ibrutinib 0.05 | ralimetinib 0.056 | [2] -0.089 | [3] 0.019 | [5] -0.003 | [6] -0.075 | [7] 0.01

KAT14 (UniProt Q9H8E8)
inactive: ibrutinib -0.071 | [1] 0.013 | [3] -0.06 | [8] 0.112

KDF1 (UniProt Q8NAX2)
inactive: ibrutinib -0.004 | [1] 0 | [3] 0.001 | [4] -0.013 | [6] 0.054 | [8] 0.115

KAT5 isoform 3 (UniProt Q92993)
inactive: ibrutinib 0.022 | [1] 0.038 | [3] -0.169 | [4] 0.048 | [5] 0.055 | [6] -0.019 | [8] -0.161

ISCU (UniProt Q9H1K1)
inactive: ibrutinib 0.009 | [1] -0.055 | ralimetinib -0.07 | [2] -0.059 | [3] -0.002 | [4] -0.004 | [5] 0.036 | [6] -0.064 | [7] 0.032 | [8] -0.014

KDM2A (UniProt Q9Y2K7)
inactive: ibrutinib 0.028 | ralimetinib 0.168 | [2] 0.148 | [3] 0.052 | [4] 0.023 | [5] -0.025 | [7] 0.067

KAZN isoform 3 (UniProt Q674X7)
inactive: ibrutinib -0.017 | ralimetinib -0.244 | [2] 0.063 | [3] 0.032 | [6] -0.014 | [7] 0.169

ITPKC (UniProt Q96DU7)
inactive: ibrutinib 0.004 | ralimetinib -0.019 | [2] -0.061 | [3] 0.067 | [4] 0.017 | [5] -0.021 | [6] 0.069 | [7] 0.156

KAT6B (UniProt Q8WYB5)
inactive: ibrutinib 0.029 | [1] 0.03 | ralimetinib 0.087 | [2] -0.013 | [3] -0.077 | [5] -0.058 | [6] 0.278 | [7] -0.047 | [8] -0.001

JAG2 (UniProt Q9Y219)
inactive: ibrutinib 0.035 | [1] -0.056 | ralimetinib -0.028 | [2] 0.05 | [3] 0.048 | [5] 0.171 | [6] 0.172 | [7] -0.037 | [8] 0.18

IQUB (UniProt Q8NA54)
inactive: ibrutinib 0.04 | [1] 0.047 | [8] -0.097

KCTD2 (UniProt Q14681)
inactive: ibrutinib 0.004 | [1] 0.114 | [4] -0.018 | [5] 0.018 | [6] 0.007 | [8] 0.007

KATNAL1 (UniProt Q9BW62)
inactive: ibrutinib 0.022 | [1] -0.073 | ralimetinib 0.018 | [2] -0.084 | [3] -0.003 | [4] 0.066 | [5] -0.072 | [6] -0.13 | [7] 0.124 | [8] 0.003

INTS6 (UniProt Q9UL03)
inactive: ibrutinib -0.034 | [1] 0.123 | [3] 0.008 | [4] 0.344 | [5] -0.062 | [6] 0.067 | [8] 0.023

ITIH2 (UniProt P19823)
inactive: ibrutinib -0.011 | [1] -0.024 | ralimetinib -0.032 | [2] -0.089 | [4] -0.171 | [6] 0.037 | [7] 0.028 | [8] 0.005

KCNK5 (UniProt O95279)
inactive: ibrutinib -0.125 | [1] 0.097 | [3] 0.167 | [4] -0.062 | [5] -0.057 | [6] 0.229 | [8] -0.345

ITIH4 (UniProt Q14624)
inactive: ibrutinib 0.025 | ralimetinib -0.026 | [2] -0.117 | [3] -0.097 | [5] -0.084 | [7] 0.022

JAK3 (UniProt P52333)
inactive: ibrutinib 0.076 | [1] 0.056 | [6] -0.016 | [8] 0.078

JMJD7 (UniProt P0C870)
inactive: ibrutinib -0.094 | [1] -0.023 | ralimetinib -0.073 | [2] -0.11 | [3] 0.049 | [4] 0.086 | [5] -0.162 | [7] 0.043 | [8] 0.034

KCTD21 (UniProt Q4G0X4)
inactive: ibrutinib -0.136 | ralimetinib 0.009 | [2] -0.104 | [3] 0.016 | [4] 0.047 | [6] 0.018 | [7] 0.078

KCTD13 (UniProt Q8WZ19)
inactive: ibrutinib -0.168 | ralimetinib 0.117 | [2] 0.005 | [3] -0.249 | [4] -0.024 | [5] 0.049 | [6] 0.042 | [7] 0.064

KBTBD7 (UniProt Q8WVZ9)
inactive: ibrutinib 0.054 | [1] 0.004 | ralimetinib -0.001 | [2] -0.02 | [3] 0.01 | [5] -0.009 | [6] 0.048 | [7] 0.023 | [8] 0.03

KDELR1 (UniProt P24390)
inactive: ibrutinib 0.018 | [1] 0.067 | ralimetinib 0.062 | [2] -0.154 | [3] -0.017 | [5] 0.023 | [6] -0.022 | [7] 0.009 | [8] 0.069

INTS8 (UniProt Q75QN2)
inactive: ibrutinib 0.024 | [1] 0.028 | ralimetinib 0.058 | [2] -0.028 | [3] 0.009 | [4] -0.021 | [5] -0.179 | [6] 0.023 | [7] -0.033 | [8] 0.031

IQCD (UniProt Q96DY2)
inactive: ibrutinib -0.01 | [1] -0.065 | [4] 0.012 | [8] 0.043

ITGB1BP1 (UniProt O14713)
inactive: ibrutinib -0.061 | [1] -0.028 | ralimetinib -0.119 | [2] -0.217 | [3] 0.094 | [4] -0.082 | [5] 0.069 | [7] 0.016 | [8] 0.071

ITM2A (UniProt O43736)
inactive: ibrutinib 0.206 | [1] -0.055 | ralimetinib -0.019 | [2] -0.094 | [3] -0.051 | [4] 0.085 | [5] -0.031 | [7] 0.065 | [8] 0.288

JOSD1 (UniProt Q15040)
inactive: [3] -0.198

ITGA2B (UniProt P08514)
inactive: [1] 0.039 | ralimetinib 0.013 | [2] -0.08 | [3] -0.072 | [4] -0.086 | [6] 0.102 | [7] 0.057 | [8] -0.02
